Data source: PubChem BioAssay AID1259308 (NCATS, 2017)
In all, the deposit lists about 59,000 reagents; below is an unselected part. About 1,510 of them (2.6%) were called active. 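Calls use total luciferase alone and ignore viability, so some active siRNAs may act by altering cell number.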 The numbers tell different reagents against one gene apart. Further read-outs or replicates are left out here.

Assay: 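Genes whose loss raises luciferase production in HEK293 cells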 (primary screen)
Cell system: human HEK293 embryonic kidney cells stably expressing firefly luciferase (HEK-CMV-Luc2-Hygro)
Knock-down reagent: single siRNA against human genes, 0.8 pmol siRNA per well
Duration: 72 h
Measurement: 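Luciferase light (ONE-Glo) measured on one replicate plate set and viability (CellTiter-Glo) on the other, scaled to a negative control siRNA, with robust z-scores and luciferase per cell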
Reading the numbers: total luciferase, z-score: higher = more reporter protein produced
Active means: 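Active when the median/MAD z-score for overall luciferase is greater than 3; a gene was taken forward for validation with new siRNAs if at least two of its three siRNAs passed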
Calls: active = raised luciferase; inactive = no rise

total luciferase, z-score, by gene knocked down and reagent
LOC729609: #1 0.187 inactive; #2 -0.616 inactive; #3 -0.287 inactive
DNAJA1P4: #1 -0.528 inactive; #2 -0.0608 inactive; #3 -0.404 inactive
NBPF3: #1 0.0249 inactive; #2 -0.37 inactive; #3 -2.22 inactive
SLC9A7: #1 0.0581 inactive; #2 -0.168 inactive; #3 -0.154 inactive

3 of these entries, set out differently.
| gene knocked down | reagent no. | total luciferase, z-score | call |
| --- | --- | --- | --- |
| LOC729609 | 3 | -0.287 | inactive |
| DNAJA1P4 | 1 | -0.528 | inactive |
| DNAJA1P4 | 2 | -0.0608 | inactive |

Continued.
total luciferase, z-score, by gene knocked down and reagent
HADH: #1 1.35 inactive; #2 0.382 inactive; #3 -0.962 inactive
HCK: #1 1.45 inactive; #2 -0.595 inactive; #3 -0.146 inactive
ZNF638: #1 -0.608 inactive; #2 1.14 inactive; #3 1.14 inactive
ENPP5: #1 -0.46 inactive; #2 -0.349 inactive; #3 -1.26 inactive
